According to patent EP1432683B9 (Recordati Ireland Limited, priority 2001, dated 2003):
Where a name gives a salt, the structure may show the parent alone. At least one read-out could not be matched to a standard name with certainty.

Experiment: Bioavailability of crystalline Forms (I) and (II) in dogs
Assay type: in vivo, Beagle dogs
Details: oral 3 mg/kg, hard gelatin capsules
Method: A study was carried out on six Beagle dogs to evaluate the bioavailability of crystalline Forms (I) and (II).
Blood samples were taken at given times and plasma concentrations of lercanidipine were determined with a stereoselective analytical method HPLC-MS/MS, according to the following working conditions;
Lercanidipine was extracted from dog plasma by means of a liquid-liquid extraction with a mixture of n-hexane and ethyl ether. The dry residue of the organic phase was taken up with a mixture of methanol and water and a liquid-phase chromatographic separation (LC) was carried out; the two enantiomers of lercanidipine were separated on a CHIROBIOTIC V column (Vancomycin) (particle size […], column size 150 x 4.6 mm (ASTEC, NJ, USA)) and were detected with a mass spectrometer (MS/MS) by using an electrospray technique.
The analytical method was validated in a concentration range between 0.1 and 20 ng/ml of plasma for both enantiomers. The method has shown to be specific with an accuracy of 15%. The average concentrations of lercanidipine in the tables represent the sum of both enantiomers.

COC(=O)C1=C(C)NC(C)=C(C(=O)OC(C)(C)CN(C)CCC(c2ccccc2)c2ccccc2)C1c1cccc([N+](=O)[O-])c1 (single isomer, unassigned) [Form (II), lercanidipine hydrochloride]
bioavailability compared with Form (I): more bioavailable than the one containing crystalline Form (I) in 5 animals out of 6
